This note sets out measurements from PubChem BioAssay AID929 (National Center for Advancing Translational Sciences (NCATS), 2007).

By UniProt entry, the sequences of proteins in these tests, tags left out. Where a name states a change or a piece, a line headed by the entry shows the natural chain unless it says otherwise.
UniProt P29466: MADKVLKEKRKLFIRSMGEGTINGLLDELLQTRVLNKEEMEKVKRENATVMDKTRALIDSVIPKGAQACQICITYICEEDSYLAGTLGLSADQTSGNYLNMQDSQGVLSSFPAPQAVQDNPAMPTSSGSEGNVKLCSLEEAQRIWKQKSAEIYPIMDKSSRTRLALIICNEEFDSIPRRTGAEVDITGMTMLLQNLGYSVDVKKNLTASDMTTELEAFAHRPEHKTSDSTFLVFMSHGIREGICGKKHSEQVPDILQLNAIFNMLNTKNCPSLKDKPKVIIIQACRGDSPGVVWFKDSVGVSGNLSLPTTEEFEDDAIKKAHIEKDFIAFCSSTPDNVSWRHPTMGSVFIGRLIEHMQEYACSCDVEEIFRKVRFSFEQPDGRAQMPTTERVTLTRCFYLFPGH

Some of the results follow. The main result of the screen is listed elsewhere. These columns were measured beside it and carry no call. Most of these compounds were active or inconclusive in the main read-out, so they are no random draw. The note in brackets gives the kind of curve behind each potency; many fits are weak.

The term AC50 denotes the concentration giving half of the maximal activity seen.

This test addresses Caspase-1 (Homo sapiens) (UniProt P29466). Description: Concentration-Response Counterscreen for Redox Active Inhibitors of Caspase-1: Cysteine. As to conditions: recombinant caspase-1, fluorogenic substrate, cysteine buffer; measured here: 1 hr endpoint read. The text has this:
NIH Molecular Libraries Screening Centers Network [MLSCN]
NIH Chemical Genomics Center [NCGC]
PI Name: Dr. James Wells,
Dr. Enrique Perez-Paya, Dr.Janice Williams, Dr. Dennis Wolan, a person
The caspases (Cysteine Aspartyl Protease) comprise a related family of 14 dimeric proteases that are critical mediators of apoptosis (programmed cell death) and inflammation. The caspases represent an important class of drug targets for stroke, ischemia, cancer and inflammatory diseases. […] One goal of this project was to identify compounds that act as allosteric inhibitors via stabilizing the procaspase form of the enzyme. Previous work in Well's laboratory has shown that such allosteric inhibitors can be identified and these act by binding at the dimer interface of enzyme (Hardy, Lam et al., 2004).
The biochemical assay was configured using purified caspase 1 at a high enzyme concentration to promote formation of the homodimers and thus facilitate the identification of allosteric inhibitors. The overall goal was to identify reversible inhibitors with better drug-like properties than the currently available set of aspartyl-containing peptidomimetics that covalently bind the active site. Caspase 1 was assayed using the profluorescent substrate Ac-WEHD-AFC. After initiation of the assay with substrate the plates were rapidly read using an automated robotic system (Kalypsys, Inc.) to maintain consistent timing. A kinetic mode of detection was used where the initial rate was collected (estimated final product formation was ~10%). Product formation was also measured after 1 hour. Compounds were screened as a concentration-titration series that ranged from 57 uM to 0.7 nM.
Compounds that generate reactive oxygen species can lead to high hit rates in HTS biochemical assays. This mechanism was cited by Smith et al. (2002) as the main artifact responsible for >85% of the hits in an HTS against caspase 8. We identified a series of putative inhibitors in an enzymatic screen of caspase 1 and we performed two assays to test if these compounds operated by such a redox-active mechanism. Based on the published work, compounds that appear active due to a redox-active mechanism will show shifts in inhibition potency when the redox potential of the buffer is changed. Compounds that show a change in IC50 upon switching the buffer system from DTT to cysteine or DTT and the enzyme catalase are suspected to be redox active compounds.
NCGC Assay Protocol Summary:
Caspase 1 was prepared in buffer (50 mM HEPES pH 7.5, 50 mM KCl, 200 mM NaCl, 10 mM Cys (Aldrich cat# 861677), 0.1% CHAPS) at a concentration of 66.6 nM and 3 uL was dispensed to all wells using black solid Kalypsys 1536-well plates. 20 nL of DMSO containing compounds was added using a pin-tool (Kalypsys Inc.) to columns 5-48. Then 20 nL of DMSO solution from a control plate was added to columns 1-4. Controls were: Column 1, 16 point titration with each concentration in duplicate (1:1 dilutions in DMSO; final starting concentration was 57 uM) of the caspase 1 inhibitor Ac-WEHD-CHO (Alexis Biochemicals); Column 2, a 16 point titration with each concentration in duplicate of the free AFC fluorophore prepared in DMSO (Alexis Biochemicals), final starting was 40 uM; Column 3 neutral (DMSO only) control; Column 4: DMSO alone, to serve as a negative control (no substrate was added). Then 1 uL of 20 uM the substrate Ac-WEHD-AFC (Alexis Biochemicals) prepared in the same buffer was dispensed to all wells except columns 2 and 4 and the plates were immediately transferred (< 1 min) to the Viewlux. The plates were then exposed using 405 nm excitation/520 nm emission filters for 4 sec and read at 20 sec intervals for 3 min. Final enzyme concentration was 50 nM and the final substrate concentration was 5 uM.
Concentration-response curves were fitted to the data calculated from slope of the linear regression of fluorescent intensity versus time (the rate). […]
(In general: Counterscreens check selectivity or assay interference.)
As to `[C-]1=CC=CC1.[C-]1=CC=CC1.[Cl-].[Cl-].[Ti+4]`, the AC50 was 20 µM [falling, partial curve, poor fit].

As to `C[C@]12Cc3cn4c(nc3C=C1CC[C@H]1[C@@H]2CC[C@@]2(C)[C@H]1CC[C@@]2(O)C#N)nc1ccccc14`, the half-maximal activity concentration (AC50) is 31.6 µM [rising, partial curve]. `Cn1ncnc2c(=O)n(C)c(=O)nc1-2`: the AC50 was 3.98 µM [falling, partial curve, poor fit].

As for `Cc1cc(C)cc(C(=O)N(C)[C@H](Cc2ccc(-c3ccccc3)cc2)C(=O)N[C@@H](Cc2c[nH]c3ccccc23)C(=O)O)c1`, the AC50 is 15.8 µM [falling, full curve]. Next, `CC(=O)Nc1cc(OC(C)=O)c2nonc2c1OC(C)=O`: 15.8 µM [falling, partial curve].

With `O=C(O)c1cc[c]([Hg][Cl])cc1`, the AC50 was 2 µM [falling, full curve].
